Results: PubChem BioAssay AID1487 (National Center for Advancing Translational Sciences (NCATS), 2009)
This is one part of the list. The main result of the screen is listed elsewhere. These columns were measured beside it and carry no call. The list favours compounds with an active or inconclusive main result. Words in brackets tell the shape of the fitted curve; partial curves, single points and poor fits give uncertain potencies.

Experiment: qHTS Assay for Modulators of Lamin A Splicing
Details: HeLa LMNA splicing GFP/RFP minigene ratio, 48 h
Outline: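 S3 HeLa stable clones carrying a lamin A-EGFP splicing minigene plus DsRed2 were seeded at 600 cells/well in Opti-MEM with 2% FBS, pin-dosed and incubated 48 h at 37°C. Acumen cytometry (488 nm) gave the GFP/RFP total-intensity ratio.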

[1] = measured here: GFP splicing reporter channel
[2] = measured here: RFP viability control channel

SMILES | AC50 [1] | AC50 [2]
O=C(C1CCCO1)N1N=C(c2ccc(Br)cc2)CC1c1ccco1 (stereo not drawn) | 14.1 µM [rising, single point] | 35.5 µM [rising, single point]
COc1ccc(C(=O)NCC(c2ccc3c(c2)OCO3)N2CCN(c3ccccc3F)CC2)cc1 (stereo not drawn) | 14.1 µM [falling, single point] | 35.5 µM [falling, single point]
COc1ccc(-c2[nH]c(-c3ccccc3)nc2SCC(=O)Nc2nccs2)cc1 | 2 µM [falling, single point] | 
O=C1CCc2cc(OCCCCc3nnnn3C3CCCCC3)ccc2N1 | 15.8 µM [falling, single point] | 15.8 µM [falling, partial curve, poor fit]
Cc1cccc(-c2cc(C(=O)N3CCCc4ccccc43)c3ccccc3n2)c1 |  | 12.6 µM [rising, single point]
CCN(Cc1ccccc1)S(=O)(=O)c1ccc(-c2coc(C)n2)cc1 | 0.282 µM [falling, full curve, poor fit] | 0.178 µM [falling, full curve, poor fit]
COc1ccc(C(=O)N/N=C/c2cn[nH]c2-c2ccc(OC)cc2OC)cc1 |  | 35.5 µM [rising, single point]
COc1ccc(CN2CCN(c3ccc(F)cc3)CC2)c(OC)c1OC |  | 31.6 µM [rising, single point]
CCOC(=O)c1sc(NC(=O)CSc2nccc(C)n2)nc1C | 35.5 µM [falling, single point] | 
C(=C\c1ccc2ccccc2n1)/c1ccccc1 | 20 µM [falling, partial curve, poor fit] | 35.5 µM [falling, single point]
O=c1cc(CN2CCN(S(=O)(=O)/C=C/c3ccccc3)CC2)c2ccc(O)cc2o1 |  | 14.1 µM [rising, partial curve]
N#CCC(=O)Nc1sc2c(c1C(N)=O)CCCC2 | 35.5 µM [rising, single point] | 35.5 µM [rising, single point]
CCOC(=O)c1c(-c2ccccc2)csc1NC(=O)CSc1ccccc1 | 31.6 µM [rising, single point] | 35.5 µM [rising, single point]
COc1cc(OC)c(OC)cc1CN1CCCC(C(=O)c2ccccc2SC)C1 (stereo not drawn) | 28.2 µM [falling, partial curve] | 
Cn1c(CN2CCN(c3ccc(Cl)cc3)CC2)nc2ccccc21 | 11.2 µM [rising, partial curve] | 12.6 µM [rising, partial curve]
O=C(CSCc1c(F)cccc1Cl)NCc1ccncc1 | 0.00708 µM [falling, full curve, poor fit] | 
COC(=O)CC(NC(=O)c1cccs1)c1ccc(OC)c(OC)c1 (stereo not drawn) | 1.26 µM [rising, full curve] | 0.501 µM [rising, full curve]
O=C(Cn1cnc2ccccc21)N/N=C/c1ccccc1 | 50.1 µM [rising, partial curve, poor fit] | 
CCN(c1ccccc1)S(=O)(=O)c1ccc(C(=O)Nc2nnc(C3CC3)o2)cc1 | 6.31 µM [falling, single point] | 
C[C@@]12CC[C@@H]3c4ccc(O)cc4CC[C@H]3[C@H]1C[C@@H](O)[C@H]2O | 0.282 µM [falling, full curve] | 0.224 µM [falling, full curve]
COc1cccc2c1C(=O)C=C(C)C2=O | 35.5 µM [falling, single point] | 22.4 µM [falling, single point]
COc1ccc2nc(Nc3nc(-c4cc5ccccc5oc4=O)cs3)sc2c1 |  | 3.55 µM [rising, single point]
CCCOc1ccc(-c2nc(C#N)c(N3CCN(C)CC3)o2)cc1 | 35.5 µM [rising, single point] | 35.5 µM [rising, single point]
c1cc(-c2ccncc2)ccn1 |  | 0.0562 µM [falling, full curve, poor fit]
CN(C)c1ccc(CNC(=O)Cn2c(=O)oc3cc(S(=O)(=O)N4CCCCCC4)ccc32)cc1 | 0.158 µM [rising, full curve, poor fit] | 
CC(=O)Nc1ccc(OS(=O)(=O)c2ccc([N+](=O)[O-])cc2)cc1 | 7.94 µM [falling, partial curve, poor fit] | 
CCOc1ccccc1NC(=O)Cn1[nH]c(=O)c2ccccc2c1=O | 14.1 µM [rising, partial curve, poor fit] | 20 µM [rising, partial curve, poor fit]
C/C(=N\OCC(=O)Nc1ccccc1C(C)(C)C)c1ccc2c(c1)OCCO2 |  | 14.1 µM [rising, partial curve, poor fit]

SMILES | AC50 [1] | AC50 [2]
CCNc1nc(NC(N)=S)nc(NC(C)(C)C)n1 | 12.6 µM [falling, partial curve] | 0.562 µM [falling, full curve, poor fit]
Cc1cccc(COc2ncnc3nc[nH]c23)c1 | 6.31 µM [rising, full curve] | 11.2 µM [rising, partial curve]
O=C(N/N=C\c1cccc([N+](=O)[O-])c1O)C1COc2ccccc2O1 (stereo not drawn) |  | 35.5 µM [rising, single point]
CCc1ccc(N2CC(C(=O)Nc3ccc(C)c(S(=O)(=O)N4CCOCC4)c3)CC2=O)cc1 (stereo not drawn) |  | 15.8 µM [rising, single point]
CCOC(=O)c1cnc(SCc2cccc3ccccc23)nc1N | 10 µM [rising, partial curve] | 11.2 µM [rising, single point]
Cc1ccc(-c2nn(-c3ccccc3)cc2NC(=O)CCl)cc1 | 1 µM [falling, full curve] | 0.112 µM [falling, full curve, poor fit]
N=c1c2c(-c3ccccc3)c(-c3ccccc3)n(Cc3ccco3)c2ncn1CCO | 35.5 µM [rising, single point] | 11.2 µM [rising, partial curve]
CC1=CC(=C(C#N)C#N)C=C(C)N1CCC(C)C | 0.0251 µM [rising, full curve, poor fit] | 
Cc1c(NC(=O)OCCNC(=O)COc2ccc(Cl)cc2Cl)sc(=S)n1C |  | 31.6 µM [rising, single point]
COc1ccc(/C=C/C(=O)Nc2cccc(C(C)=O)c2)cc1 |  | 11.2 µM [rising, single point]
CC(=O)/C(=N\Nc1ccc(Cl)cc1)Sc1nnc(-c2ccccc2)n1-c1ccccc1 |  | 25.1 µM [rising, single point]
O=C(CN(c1ccc(F)cc1)S(=O)(=O)c1ccccc1)NCCSC1CCCCC1 |  | 17.8 µM [rising, single point]
CC(C)CCC(C)NC(=O)c1ccc2nccnc2c1 (stereo not drawn) | 0.01 µM [falling, full curve, poor fit] | 
O=C(c1cc(S(=O)(=O)N2CCOCC2)c(Cl)cc1Cl)N1CCCCC1 |  | 35.5 µM [rising, single point]
COc1ccc(/C=N/Nc2nc(-c3ccc(Cl)cc3)cc(C(F)(F)F)n2)c(OC)c1 | 11.2 µM [rising, partial curve, poor fit] | 12.6 µM [rising, single point]
O=C(NCCc1ccc(Cl)cc1)C1CCC(CNc2c(N3CCCCC3)c(=O)c2=O)CC1 (stereo not drawn) |  | 31.6 µM [rising, single point]
Cc1ccc(-c2nc(SCC(=O)Nc3cc(S(=O)(=O)N4CCCCC4)ccc3Cl)n[nH]2)cc1 | 15.8 µM [rising, single point] | 17.8 µM [rising, partial curve]
CC(=O)N1N=C(N)SC1(C)C |  | 11.2 µM [falling, partial curve, poor fit]
Cc1cccc(NCc2ccc(O)c3ncccc23)c1 | 2.82 µM [falling, single point] | 
O=C(CSc1n[nH]c(-c2ccccc2Cl)n1)NCc1ccc(F)cc1 | 0.794 µM [rising, full curve, poor fit] | 0.708 µM [rising, full curve, poor fit]
CNCC[C@H](Oc1ccccc1OC)c1ccccc1 |  | 0.000794 µM [falling, full curve, poor fit]
COc1nn(-c2nc(-c3ccccc3)cc(C(F)(F)F)n2)cc1[N+](=O)[O-] |  | 35.5 µM [falling, single point]
Cc1cc(SCC(=O)N/N=C/c2ccc(O)c(O)c2O)c(C)cc1Br |  | 31.6 µM [rising, single point]
Cc1c(Cl)cccc1NS(=O)(=O)c1ccc(-c2cnc(C3CC3)o2)cc1 | 0.355 µM [rising, full curve] | 0.251 µM [rising, full curve]
COCc1cc(C)nc(SCC(=O)Oc2ccc(Cl)cc2)c1C#N | 0.112 µM [falling, full curve, poor fit] | 
CC(C)Cc1csc(NC(=O)c2ccc(Cl)cc2)c1C(=O)O | 10 µM [rising, partial curve, poor fit] | 14.1 µM [rising, partial curve, poor fit]
CCC(=O)N1c2ccccc2CC1C(=O)NCc1cc(OC)ccc1OC (stereo not drawn) |  | 0.501 µM [rising, full curve, poor fit]

Given with each value named: four of the compounds above.
O=C(N/N=C\c1cccc([N+](=O)[O-])c1O)C1COc2ccccc2O1 (stereo not drawn)
  AC50 [2]: 35.5 µM [rising, single point]
Cc1c(NC(=O)OCCNC(=O)COc2ccc(Cl)cc2Cl)sc(=S)n1C
  AC50 [2]: 31.6 µM [rising, single point]
COc1nn(-c2nc(-c3ccccc3)cc(C(F)(F)F)n2)cc1[N+](=O)[O-]
  AC50 [2]: 35.5 µM [falling, single point]
COCc1cc(C)nc(SCC(=O)Oc2ccc(Cl)cc2)c1C#N
  AC50 [1]: 0.112 µM [falling, full curve, poor fit]
